# Source: the supplement of paper PMC8728848
# The other results are listed elsewhere or left out.
# Assays:
# Experiment in all cases: glycan array binding signal (z-score within array); higher = stronger binding
# Conditions in all cases: glycan notation: IUPAC condensed, linker removed
# GalNAc(b1-6)GalNAc = target: GalNAc(b1-6)GalNAc
# How it was run: (§1)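 Negative Z-scores can be read as non-binding. The Z-score is calculated within each array and then averaged across arrays of one protein sequence at different concentrations or buffers and across linkers. Arrays, 3228 in all, were curated from the Consortium for Functional Glycomics database and kept only where the protein sequence was available.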
# Glc(a1-4)Glc = target: Glc(a1-4)Glc
# How it was run: as §1
# [1] = target: Glc(a1-4)Glc(a1-4)Glc(a1-4)Glc
# How it was run: as §1
# Glc(a1-6)Glc(a1-6)Glc = target: Glc(a1-6)Glc(a1-6)Glc
# How it was run: as §1
# [2] = target: Glc(a1-6)Glc(a1-6)Glc(a1-6)Glc
# How it was run: as §1
# Glc(b1-4)Glc = target: Glc(b1-4)Glc
# How it was run: as §1
# Glc(b1-6)Glc = target: Glc(b1-6)Glc
# How it was run: as §1
# GlcA(b1-3)Gal = target: GlcA(b1-3)Gal
# How it was run: as §1
# GlcA(b1-3)GlcNAc = target: GlcA(b1-3)GlcNAc
# How it was run: as §1
# GlcA(b1-6)Gal = target: GlcA(b1-6)Gal
# How it was run: as §1
# [3] = target: GlcNAc(a1-3)Gal(b1-4)GlcNAc
# How it was run: as §1
# [4] = target: GlcNAc(a1-4)Gal(b1-3)GlcNAc
# How it was run: as §1
# [5] = target: GlcNAc(a1-4)Gal(b1-4)GalNAc
# How it was run: as §1
# [6] = target: GlcNAc(a1-4)Gal(b1-4)GlcNAc
# How it was run: as §1
# [7] = target: GlcNAc(a1-4)Gal(b1-4)GlcNAc(b1-3)Gal(b1-4)Glc
# How it was run: as §1
# [8] = target: GlcNAc(a1-4)Gal(b1-4)GlcNAc(b1-3)Gal(b1-4)GlcNAc
# How it was run: as §1
# [9] = target: GlcNAc(a1-4)Gal(b1-4)GlcNAc(b1-3)Gal(b1-4)GlcNAc(b1-3)Gal(b1-4)GlcNAc
# How it was run: as §1
# [10] = target: GlcNAc(a1-4)Gal(b1-4)GlcNAc(b1-3)Gal(b1-4)[Fuc(a1-3)]GlcNAc(b1-3)Gal(b1-4)[Fuc(a1-3)]GlcNAc
# How it was run: as §1
# [11] = target: GlcNAc(a1-6)Gal(b1-4)GlcNAc
# How it was run: as §1
# [12] = target: GlcNAc(b1-2)Gal(b1-3)GalNAc
# How it was run: as §1
# [13] = target: GlcNAc(b1-2)Man(a1-3)[GlcNAc(b1-2)Man(a1-6)]Man(b1-4)GlcNAc(b1-4)GlcNAc
# How it was run: as §1
# [14] = target: GlcNAc(b1-2)Man(a1-3)[GlcNAc(b1-2)Man(a1-6)]Man(b1-4)GlcNAc(b1-4)[Fuc(a1-6)]GlcNAc
# How it was run: as §1
# [15] = target: GlcNAc(b1-2)Man(a1-3)[GlcNAc(b1-4)][GlcNAc(b1-2)Man(a1-6)]Man(b1-4)GlcNAc(b1-4)GlcNAc
# How it was run: as §1
# [16] = target: GlcNAc(b1-2)[GlcNAc(b1-4)]Man(a1-3)[GlcNAc(b1-2)Man(a1-6)]Man(b1-4)GlcNAc(b1-4)GlcNAc
# How it was run: as §1
# [17] = target: GlcNAc(b1-2)[GlcNAc(b1-4)]Man(a1-3)[GlcNAc(b1-4)][GlcNAc(b1-2)Man(a1-6)]Man(b1-4)GlcNAc(b1-4)GlcNAc
# How it was run: as §1
# [18] = target: GlcNAc(b1-2)[GlcNAc(b1-4)]Man(a1-3)[GlcNAc(b1-4)][GlcNAc(b1-2)[GlcNAc(b1-6)]Man(a1-6)]Man(b1-4)GlcNAc(b1-4)GlcNAc
# How it was run: as §1
# [19] = target: GlcNAc(b1-2)[GlcNAc(b1-6)]Man(a1-6)[GlcNAc(b1-2)Man(a1-3)]Man(b1-4)GlcNAc(b1-4)GlcNAc
# How it was run: as §1
# [20] = target: GlcNAc(b1-2)[GlcNAc(b1-6)]Man(a1-6)[GlcNAc(b1-2)Man(a1-3)][GlcNAc(b1-4)]Man(b1-4)GlcNAc(b1-4)GlcNAc
# How it was run: as §1
# GlcNAc(b1-3)Gal = target: GlcNAc(b1-3)Gal
# How it was run: as §1
# [21] = target: GlcNAc(b1-3)Gal(b1-3)GalNAc
# How it was run: as §1
binder,measurement,setting,value
"Flo11 (Saccharomyces cerevisiae), P08640 (protein) MQRPFLLAYLVLSLLFNSALGFPTALVPRGSSEGTSCNSIVNGCPNLDFNWHMDQQNIMQYTLDVTSVSWVQDNTYQITIHVKGKENIDLKYLWSLKIIGVTGPKGTVQLYGYNENTYLIDNPTDFTATFEVYATQDVNSCQVWMPNFQIQFEYLQGSAAQYASSWQWGTTSFDLSTGCNNYDNQGHSQTDFPGFYWNIDCDNNCGGTKSSTTTSSTSESSTTTSSTSESSTTTSSTSESSTTTSSTSESSTSSSTTAPATPTTTSCTKEKPTPPTTTSCTKEKPTPPHHDTTPCTKKKTTTSKTCTKKTTTPVPTPSSSTTESSSAPVPTPSSSTTESSSAPVTSSTTESSSAPVPTPSSSTTESSSAPVTSSTTESSSAPVTSSTTESSSAPVPTPSSSTTESSSAPVTSSTTESSSAPVTSSTTESSSAPVTSSTTESSSAPVTSSTTESSSAPVPTPSSSTTESSSAPVTSSTTESSSAPVPTPSSSTTESSSAPVTSSTTESSSAPVPTPSSSTTESSSAPAPTPSSSTTESSSAPVTSSTTESSSAPVPTPSSSTTESSSTPVTSSTTESSSAPVPTPSSSTTESSSAPVPTPSSSTTESSSAPAPTPSSSTTESSSAPVTSSTTESSSAPVPTPSSSTTESSSAPVPTPSSSTTESSSAPVPTPSSSTTESSSAPVTSSTTESSSAPVTSSTTESSSAPVPTPSSSTTESSSAPVPTPSSSTTESSSAPVPTPSSSTTESSSAPVTSSTTESSSAPVPTPSSSTTESSSAPVPTPSSSTTESSSAPVPTPSSSTTESSVAPVPTPSSSSNITSSAPSSTPFSSSTESSSVPVPTPSSSTTESSSAPVSSSTTESSVAPVPTPSSSSNITSSAPSSIPFSSTTESFSTGTTVTPSSSKYPGSQTETSVSSTTETTIVPTKTTTSVTTPSTTTITTTVCSTGTNSAGETTSGCSPKTVTTTVPTTTTTSVTTSSTTTITTTVCSTGTNSAGETTSGCSPKTITTTVPCSTSPSETASESTTTSPTTPVTTVVSTTVVTTEYSTSTKPGGEITTTFVTKNIPTTYLTTIAPTPSVTTVTNFTPTTITTTVCSTGTNSAGETTSGCSPKTVTTTVPCSTGTGEYTTEATTLVTTAVTTTVVTTESSTGTNSAGKTTTGYTTKSVPTTYVTTLAPSAPVTPATNAVPTTITTTECSAATNAAGETTSVCSAKTIVSSASAGENTAPSATTPVTTAIPTTVITTESSVGTNSAGETTTGYTTKSIPTTYITTLIPGSNGAKNYETVATATNPISIKTTSQLATTASASSVAPVVTSPSLTGPLQSASGSAVATYSVPSISSTYQGAANIKVLGNFMWLLLALPVVF",glycan array binding signal (z-score),GalNAc(b1-6)GalNAc,-1.03
same,glycan array binding signal (z-score),Glc(a1-4)Glc,-0.868
same,glycan array binding signal (z-score),[1],0.7
same,glycan array binding signal (z-score),Glc(a1-6)Glc(a1-6)Glc,0.761
same,glycan array binding signal (z-score),[2],-0.394
same,glycan array binding signal (z-score),Glc(b1-4)Glc,-0.613
same,glycan array binding signal (z-score),Glc(b1-6)Glc,-1.13
same,glycan array binding signal (z-score),GlcA(b1-3)Gal,0.135
same,glycan array binding signal (z-score),GlcA(b1-3)GlcNAc,-0.751
same,glycan array binding signal (z-score),GlcA(b1-6)Gal,-0.723
same,glycan array binding signal (z-score),[3],0.274
same,glycan array binding signal (z-score),[4],0.653
same,glycan array binding signal (z-score),[5],-0.216
same,glycan array binding signal (z-score),[6],-0.057
same,glycan array binding signal (z-score),[7],0.685
same,glycan array binding signal (z-score),[8],6.8
same,glycan array binding signal (z-score),[9],0.576
same,glycan array binding signal (z-score),[10],3.01
same,glycan array binding signal (z-score),[11],-0.397
same,glycan array binding signal (z-score),[12],0.689
same,glycan array binding signal (z-score),[13],1.46
same,glycan array binding signal (z-score),[14],3.49
same,glycan array binding signal (z-score),[15],-0.197
same,glycan array binding signal (z-score),[16],-0.017
same,glycan array binding signal (z-score),[17],-0.119
same,glycan array binding signal (z-score),[18],0.283
same,glycan array binding signal (z-score),[19],0.744
same,glycan array binding signal (z-score),[20],0.541
same,glycan array binding signal (z-score),GlcNAc(b1-3)Gal,-1.25
same,glycan array binding signal (z-score),[21],1.09
